The mice bore no tumour; each value counts animals alive of those treated. Counts of survivors are from the toxicity check (mostly the fifth day) where no day follows; animals may have died later. Schedule codes are those of the source, taken here to give the interval after Q, in days (D) or hours (H), and the number of doses after X. Some doses were run more than once; the results are listed from low to high.
System: B6D2F1 mice, nontumored toxicity test, survival
Test: NCI In Vivo Anticancer Drug Screen. Data for tumor model Nontumored Animals (Toxicity Test) in B6D2F1 (BDF1) mice
Conditions: vehicle: water

C[n+]1ccc(Nc2ccc(NC(=O)c3ccc(Nc4cc[n+](C)c5ccc(N)cc45)cc3N)cc2)cc1
survivor count (dose: 0.25 mg/kg/injection, schedule: Q01DX005 (iv)): 8 of 8
survivor count (dose: 0.5 mg/kg/injection, schedule: Q01DX005 (iv)): 8 of 8
survivor count (dose: 0.5 mg/kg/injection, schedule: Q01DX009 (ip)): 8 of 8
survivor count (dose: 0.5 mg/kg/injection, schedule: Q03HX008 (ip)): 8 of 8
survivor count (dose: 0.5 mg/kg/injection, schedule: Q03HX016 (ip)): 8 of 8
survivor count (dose: 0.5 mg/kg/injection, schedule: Q03HX024 (ip)): 8 of 8
survivor count (dose: 0.5 mg/kg/injection, schedule: Q04DX003 (iv)): 8 of 8
survivor count (dose: 1.0 mg/kg/injection, schedule: Q01DX005 (iv)): 7 of 7
survivor count (dose: 1.0 mg/kg/injection, schedule: Q01DX009 (ip)): 8 of 8
survivor count (dose: 1.0 mg/kg/injection, schedule: Q01DX009 (oral)): 8 of 8
survivor count (dose: 1.0 mg/kg/injection, schedule: Q03HX008 (ip)): 8 of 8
survivor count (dose: 1.0 mg/kg/injection, schedule: Q03HX016 (ip)): 8 of 8
survivor count (dose: 1.0 mg/kg/injection, schedule: Q03HX024 (ip)): 8 of 8
survivor count (dose: 1.0 mg/kg/injection, schedule: Q03HX024 (oral)): 8 of 8
survivor count (dose: 1.0 mg/kg/injection, schedule: Q04DX003 (iv)): 8 of 8
survivor count (dose: 2.0 mg/kg/injection, schedule: Q01DX001 (ip)): 8 of 8
survivor count (dose: 2.0 mg/kg/injection, schedule: Q01DX005 (iv)): 8 of 8
survivor count (dose: 2.0 mg/kg/injection, schedule: Q01DX009 (ip)): 8 of 8
survivor count (dose: 2.0 mg/kg/injection, schedule: Q01DX009 (oral)): 8 of 8
survivor count (dose: 2.0 mg/kg/injection, schedule: Q03HX008 (ip)): 8 of 8
survivor count (dose: 2.0 mg/kg/injection, schedule: Q03HX016 (ip)): 8 of 8
survivor count (dose: 2.0 mg/kg/injection, schedule: Q03HX024 (ip)): 8 of 8
survivor count (dose: 2.0 mg/kg/injection, schedule: Q03HX024 (oral)): 8 of 8
survivor count (dose: 2.0 mg/kg/injection, schedule: Q04DX003 (ip)): 8 of 8
survivor count (dose: 2.0 mg/kg/injection, schedule: Q04DX003 (iv)): 8 of 8
survivor count (dose: 2.0 mg/kg/injection, schedule: Q08DX002 (ip)): 8 of 8
survivor count (dose: 4.0 mg/kg/injection, schedule: Q01DX001 (ip)): 8 of 8
survivor count (dose: 4.0 mg/kg/injection, schedule: Q01DX005 (iv)): 3 of 8
survivor count (dose: 4.0 mg/kg/injection, schedule: Q01DX009 (ip)): 8 of 8
survivor count (dose: 4.0 mg/kg/injection, schedule: Q01DX009 (oral)): 8 of 8
survivor count (dose: 4.0 mg/kg/injection, schedule: Q03HX008 (ip)): 8 of 8
survivor count (dose: 4.0 mg/kg/injection, schedule: Q03HX016 (ip)): 8 of 8
survivor count (dose: 4.0 mg/kg/injection, schedule: Q03HX024 (ip)): 8 of 8
survivor count (dose: 4.0 mg/kg/injection, schedule: Q03HX024 (oral)): 8 of 8
survivor count (dose: 4.0 mg/kg/injection, schedule: Q04DX003 (ip)): 8 of 8
survivor count (dose: 4.0 mg/kg/injection, schedule: Q04DX003 (iv)): 8 of 8
survivor count (dose: 4.0 mg/kg/injection, schedule: Q08DX002 (ip)): 8 of 8
survivor count (dose: 8.0 mg/kg/injection, schedule: Q01DX001 (ip)): 8 of 8
survivor count (dose: 8.0 mg/kg/injection, schedule: Q01DX005 (ip)): 7 of 8
survivor count (dose: 8.0 mg/kg/injection, schedule: Q01DX009 (ip)): 8 of 8
survivor count (dose: 8.0 mg/kg/injection, schedule: Q01DX009 (oral)): 8 of 8
survivor count (dose: 8.0 mg/kg/injection, schedule: Q03HX008 (ip)): 5 of 8
survivor count (dose: 8.0 mg/kg/injection, schedule: Q03HX016 (ip)): 7 of 8
survivor count (dose: 8.0 mg/kg/injection, schedule: Q03HX024 (ip)): 7 of 8
survivor count (dose: 8.0 mg/kg/injection, schedule: Q03HX024 (oral)): 8 of 8
survivor count (dose: 8.0 mg/kg/injection, schedule: Q04DX003 (ip)): 8 of 8
survivor count (dose: 8.0 mg/kg/injection, schedule: Q04DX003 (iv)): 0 of 8
survivor count (dose: 8.0 mg/kg/injection, schedule: Q08DX002 (ip)): 8 of 8
survivor count (dose: 16.0 mg/kg/injection, schedule: Q01DX001 (ip)): 7 of 8
survivor count (dose: 16.0 mg/kg/injection, schedule: Q01DX005 (ip)): 4 of 8
survivor count (dose: 16.0 mg/kg/injection, schedule: Q01DX009 (ip)): 0 of 8
survivor count (dose: 16.0 mg/kg/injection, schedule: Q03HX008 (ip)): 1 of 8
survivor count (dose: 16.0 mg/kg/injection, schedule: Q03HX016 (ip)): 0 of 8
survivor count (dose: 16.0 mg/kg/injection, schedule: Q03HX024 (ip)): 2 of 8
survivor count (dose: 16.0 mg/kg/injection, schedule: Q04DX003 (ip)): 7 of 8 and 8 of 8
survivor count (dose: 16.0 mg/kg/injection, schedule: Q08DX002 (ip)): 7 of 8 and 8 of 8
survivor count (dose: 32.0 mg/kg/injection, schedule: Q01DX001 (ip)): 1 of 8
survivor count (dose: 32.0 mg/kg/injection, schedule: Q01DX005 (ip)): 0 of 8
survivor count (dose: 32.0 mg/kg/injection, schedule: Q01DX009 (ip)): 0 of 8
survivor count (dose: 32.0 mg/kg/injection, schedule: Q04DX003 (ip)): 3 of 8
survivor count (dose: 32.0 mg/kg/injection, schedule: Q08DX002 (ip)): 2 of 8
survivor count (dose: 64.0 mg/kg/injection, schedule: Q01DX001 (ip)): 0 of 8
survivor count (dose: 64.0 mg/kg/injection, schedule: Q01DX005 (ip)): 0 of 8
survivor count (dose: 64.0 mg/kg/injection, schedule: Q01DX009 (ip)): 0 of 8
survivor count (dose: 64.0 mg/kg/injection, schedule: Q04DX003 (ip)): 0 of 8
survivor count (dose: 64.0 mg/kg/injection, schedule: Q08DX002 (ip)): 0 of 8
survivor count (dose: 128.0 mg/kg/injection, schedule: Q01DX001 (ip)): 0 of 8
survivor count (dose: 128.0 mg/kg/injection, schedule: Q04DX003 (ip)): 0 of 8
survivor count (dose: 128.0 mg/kg/injection, schedule: Q08DX002 (ip)): 0 of 8

Reference: PubChem BioAssay AID186 (DTP/NCI, 2004)
